Results reported in patent publication US20230002439A1, “CRYSTALLINE FORMS OF VAMOROLONE” (ReveraGen BioPharma, Inc., priority 2021, published 2023).
Some results were stated once for a whole list of compounds, not compound by compound.

Assay: DSC thermal treatment and hot-stage pXRD (Form II vs. Form I)
Format: physicochemical
Details: estimated from DSC and hot-stage pXRD data; enantiotropically related
Description: The melting of vamorolone was performed in a DSC apparatus at a heating rate of 10° C./min. The DSC furnace was programmed to cool at 10° C./min down to −40° C. A second heating cycle at a heating rate of 10° C./min was performed.
The solid samples were examined using an X-ray diffractometer (Bruker D8 advance). The system is equipped with highly-parallel x-ray beams (Göbel Mirror) and a LynxEye detector. The samples were scanned from 3 to 40° 20 at a step size of 0.02° 20 and a time per step of 19.70 seconds. The tube voltage and current were 45 kV and 40 mA, respectively. The sample was transferred from the sample container onto a zero background XRD-holder and gently ground.
DSC analyses were conducted on a TA Instruments Q200. The calibration standard was indium. A sample of 2.0 mg in weight was placed into a TA DSC pan, and weight was accurately recorded. Crimped pans were used for analysis, and the samples were heated under nitrogen (50 mL/min) at a rate of 10° C./min, up to a final temperature of 260° C.
However, the pXRD pattern obtained after the sample was cooled down to room temperature is similar to the initial material. […] It is estimated from DSC and hot-stage pXRD data that the transition temperature could well be above 100° C. […]

C[C@@H]1C[C@H]2[C@@H]3CCC4=CC(=O)C=C[C@]4(C)C3=CC[C@]2(C)[C@@]1(O)C(=O)CO [Form I, 17α,21-dihydroxy-16α-methylpregna-1,4,9(11)-triene-3,20-dione]
Form I / Form II transition temperature: above 100 °C
